From patent publication US20100298242A1, “MASKING THE TASTE OF COMPOSITONS CONTAINING SALT” (priority 2006, published 2010)
For at least one compound, name, drawing or mass did not settle the structure.

What was measured:
[1] = Organoleptic test of ORS solutions with sugars and sugar alcohols; format: in vivo
Text: Further sweetening agents were included in a taste testing. An addition of sugars and sugar alcohols has a substantially stronger effect on the total osmolarity of an ORS solution than the addition of sweeteners. […] In addition to the total osmolarity of the effective constituents of the ORS solutions, the values are outside the recommended limits of the WHO recommendations. The quantities to be added are not to be recommended either in relation to the promotion of caries and a laxative effective. […] A taste test was nevertheless carried out with the sugars and sugar alcohols. Complete dissolution took place in water and an organoleptic test took place with the calculated quantities. […] The concentrations of substances were reduced to such an extent that the maximum limit of the osmolarity of 311 mosmol/l was adhered to. […] The addition of sweeteners is to be preferred in each case with regard to side-effects, osmolarity and a complete masking of the salty taste.

[2] = sugars and sugar alcohols table; cited from earlier work

SMILES	masking of the salty taste of the ORS solutions ([1]; calculated quantities (equal sweetness to 200 mg Na-cyclamate))	masking of the salty taste of the ORS solutions ([1]; concentrations reduced so that maximum osmolarity of 311 mosmol/l is adhered to)	Sweetening power [2]
OC[C@@H](O)[C@@H](O)CO [Erythritol]	masking of the salty taste of the ORS solutions could substantially be achieved	substantially not salty, but very sour and not sweet	approx. 2
OC[C@@H](O)[C@H](O)[C@@H](O)CO [Xylitol]	–	–	1
